{
  "sequences": {"note": "The chains behind the UniProt entries cited, without tags or fusion partners. Where a name states a change or a piece, a line headed by the entry shows the natural chain unless it says otherwise.", "UniProt P00740": "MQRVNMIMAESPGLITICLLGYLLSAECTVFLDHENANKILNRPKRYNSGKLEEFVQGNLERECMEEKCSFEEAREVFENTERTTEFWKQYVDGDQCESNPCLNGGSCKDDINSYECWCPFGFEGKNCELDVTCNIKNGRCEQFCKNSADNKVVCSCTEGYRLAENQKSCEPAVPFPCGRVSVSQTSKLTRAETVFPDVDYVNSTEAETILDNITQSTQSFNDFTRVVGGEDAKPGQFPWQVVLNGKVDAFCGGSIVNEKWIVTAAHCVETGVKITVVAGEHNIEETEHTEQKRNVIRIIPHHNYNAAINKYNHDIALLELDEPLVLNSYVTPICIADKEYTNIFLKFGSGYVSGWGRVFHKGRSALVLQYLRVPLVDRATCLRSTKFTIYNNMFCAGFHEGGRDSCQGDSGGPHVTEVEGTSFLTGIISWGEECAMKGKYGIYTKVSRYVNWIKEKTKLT"},
  "source": "patent US20190185578A1",
  "binders": {"B1": {"name": "QNK131 (heavy chain SEQ ID NO: 45 and light chain SEQ ID NO: 13) (antibody, V domains shown)", "VH": "QVQLVESGGGLVQPGGSLRLSCAASGFTFSYYDIQWVRQAPGKGLEWVSSISPSGQSTYYRREVKGRFTISRDNSKNTLYLQMNSLRAEDTAVYYCARRTGREYGGGWYFDYWGQGTLVTVSS", "VL": "EIVLTQSPATLSVSPGERATLSCRASQSVSSNLAWYQQKPGQAPRLLIYGASTRATGIPARFSGSGSGTEFTLTISSLQSEDFAVYYCQQYKRPLTFGGGTKVEIK"}, "B2": {"name": "QNK284 (heavy chain SEQ ID NO: 45 and light chain SEQ ID NO: 14) (antibody, V domains shown)", "VH": "B1 VH", "VL": "DIQLTQSPSSLSASVGDRVTITCRASQGISSYLAWYQQKPGKAPKLLIYAASTLQSGVPSRFSGSGSGTDFTLTISSLQPEDFATYYCQQLNSYLGITFGPGTKVDIK"}, "B3": {"name": "QNK315 (heavy chain SEQ ID NO: 45 and light chain SEQ ID NO: 15) (antibody, V domains shown)", "VH": "B1 VH", "VL": "DIVMTQTPLSLSVTPGQPASVSCKSSQSLLRTDGKAYLDWYLQKPGQSPQLLIYEVSKRFSGVPDRFSGSGSGTDFTLKISRVEAEDVGVYYCMQRIQALSFGGGTKVDIK"}, "B4": {"name": "QNL182 (heavy chain SEQ ID NO: 45 and light chain SEQ ID NO: 16) (antibody, V domains shown)", "V domain 1": "B1 VH", "V domain 2": "SSGLTQPPSLSVSPGQTASITCSGHKVGDKYASWYQQKPGQSPVLVIYQDSKRPSGIPERFSASNSGNTATLTISGTQAVDEADYYCLAWVPNSGYVFGTGTQVTVV"}, "B5": {"name": "QNL492 (heavy chain SEQ ID NO: 45 and light chain SEQ ID NO: 17) (antibody, V domains shown)", "VH": "B1 VH", "VL": "QSVLTQPASVSGSPGQSITISCTGTSSDVGSYNLVSWYQQHPGKAPKLMIYEVSKRPSGVSNRFSGSKSGNTASLTISGLQAEDEADYYCCSYAGSSTLVFGGGTKLTVL"}, "B6": {"name": "QNL576 (heavy chain SEQ ID NO: 45 and light chain SEQ ID NO: 18) (antibody, V domains shown)", "V domain 1": "B1 VH", "V domain 2": "B4 V domain 2 with S1Q, G3A"}},
  "biological_target": "biotinylated human FIXa (human) (UniProt P00740)",
  "assay": "panning of an L chain library (fixed ACE910 H chain) on biotinylated human FIXa; no read-out printed",
  "note": "Positions count from the first letter of the chain named. No constants are given. Whether binding was seen depends on the method and setting. Binding can be weak; no strength is given.",
  "data": [
    {"binder": "B1", "values": [
      {"measurement": "binding", "result": "binds"}
    ]},
    {"binder": "B2", "values": [
      {"measurement": "binding", "result": "binds"}
    ]},
    {"binder": "B3", "values": [
      {"measurement": "binding", "result": "binds"}
    ]},
    {"binder": "B4", "values": [
      {"measurement": "binding", "result": "binds"}
    ]},
    {"binder": "B5", "values": [
      {"measurement": "binding", "result": "binds"}
    ]},
    {"binder": "B6", "values": [
      {"measurement": "binding", "result": "binds"}
    ]}
  ]
}
